Experimental data: PubChem BioAssay AID1508588 (Peter MacCallum Cancer Centre, 2020)
The whole screen tested about 18,000 reagents; shown is a part drawn at random. In the full data, 790 (4.4%) got an active call. 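Calls rest on a combination of fold-change classes in drug and vehicle arms, not all shown here.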 A number with no mark means an inactive call. Some reagents were tested in more than one well and are listed for each. No sequences are given here.

- Test: 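Knock-downs boosting vemurafenib effects on melanoma cell growth or lactate release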 (primary screen)
- Cells: human WM266.4 melanoma cells (BRAF V600 mutant)
- Knock-down reagent: siRNA pool against human genes, 40 nM
- Duration: 96 h from transfection to read-out
- Treatment: vemurafenib 300 nM (about IC25), added 48 h after transfection, for 48 h; comparison arm got DMSO vehicle only
- Detection: 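Ratios to non-targeting siRNA for cell gain, counted as DAPI nuclei after minus before drug and averaged over two replicates, and for absorbance-read medium lactate per cell; both binned into fold-change classes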
- Scale: cell gain with vemurafenib: higher = more cell gain than with non-targeting siRNA; lactate per cell with vemurafenib: higher = more lactate made per cell
- Rule for the call: 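Enhancement is called by pairing each knock-down's vehicle-arm and drug-arm fold-change classes for viability or glycolysis; which class combinations qualify is not given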
- Meaning of the calls: active = enhances vemurafenib effect; inactive = no enhancement seen

gene symbol | cell gain with vemurafenib | lactate per cell with vemurafenib
KRAS | 0.06 | 1.27
AQP7 | 1.05 | 0.98
ACTB | 0.62 | 1.25
PEX2 | 0.58 | 0.6
MRPS6 | 0.73 | 0.84
BRSK1 | 0.72 | 1.6
BRSK1 | 0.69 | 1.82
PPIP5K1 | 0.82 | 0.5
SYT14P1 | 0.57 | 0.81
DENND1A | 0.66 | 0.46
FSTL1 | 1.36 | 0.89
ATG7 | 0.47 | 1.4
PROKR1 | 0.25 | 0.62
MLH1 | 0.43 | 1.12
RARS2 | 0.64 | 1.37
GPALPP1 | 0.55 | 0.72
VPS13C | 0.68 | 0.7
EFL1 | 0.72 | 0.59
PSMD6 | -0.06 | 1.77
WIPI1 | 0.34 | 0.99
SIRT4 | 1.01 | 1.45
PAAF1 | -0.04 | 3.02
CALML4 | 0.8 | 0.94
RALYL | 0.87 | 1.53
DENR | 0.81 | 0.63
P2RX3 | 0.74 | 0.82
AMER1 | 0.24 | 1.48
EBF1 | 0.94 | 0.84
RPGR | 0.73 | 0.64
SLC2A11 | 0.28 | 1.21
PTGES2 | 1.52 | 1.24
SLC27A2 | 0.92 | 0.59
PARP9 | 0.65 | 1.16
SKA2 | 0.21 | 1.51
VN1R10P | 0.85 (active) | 0.3
PTGR1 | 0.61 | 0.78
FOXP1 | 0.33 | 1.17
DNAJC18 | 0.89 | 0.6
MAGEE1 | 0.7 | 1.47
MED17 | 0.8 | 1.22
PARG | 0.87 | 0.8
GALNT8 | 0.78 | 0.77
BCL11A | 0.47 | 1.6
MRPL48 | 0.56 | 1.01
U2AF1 | 0.07 | 3.64
SLC25A43 | 0.4 | 0.57
PRSS22 | 0.15 | 1.26
SCAMP2 | 0.98 (active) | 0.44
PSMB3 | 0.08 | 1.9
CHD5 | 1.03 | 0.66
LGALS1 | 0.29 | 1.25
GPR39 | 0.1 | 1.44
OR2AK2 | 0.33 | 2.24
ZNF234 | 0.49 | 1.28
CLEC9A | 0.3 | 1.55
LDHB | 0.65 | 1.45
OR1N1 | 0.17 | 1.27
MTURN | 0.76 | 0.64
FRG2 | 0.57 | 1.38
GCFC2 | 0.89 | 0.77
CEP97 | 1.17 | 0.43
EFNA2 | 0.89 | 0.98
HMOX2 | 0.44 | 1.06
TBX5 | 0.86 | 0.97
OGFOD3 | 0.29 | 1.99
XPNPEP2 | 0.86 | 0.62
CC2D2A | 0.78 | 1.06
ODF1 | 0.41 | 0.7
CHMP4C | 0.38 | 1.94
OR10A4 | 0.58 | 1.43
COPG2 | 0.43 | 1.73
MANBA | 0.64 | 1
TTC17 | 0.4 | 1.18
BAIAP2 | 1.19 | 1.5
NPFFR1 | 0.73 | 1.05
KCNJ11 | 0.62 | 0.98
AKAP3 | 0.59 | 1.04
CHSY1 | 0.07 | 0.62
BCDIN3D | 0.92 | 0.66
SF3B3 | 0 | 2.18
PABPC1L2A | 0.26 | 2.21
NADK2 | 0.6 | 0.8
RMI2 | 0.69 | 0.74
ANKRD49 | 0.17 | 1.97
